Data from PMC9456370.
These are yes or no findings as the source states them, for the method shown. Binding seen in cells or lysates may run through a third protein. Here binding means that the protein was enriched with, or labelled near, the bait; the list need not be complete. For some of these results: Where a sequence is shown, tags or fusion partners need not be part of it.

The chains behind the UniProt entries cited, without tags or fusion partners.
UniProt P0AB58: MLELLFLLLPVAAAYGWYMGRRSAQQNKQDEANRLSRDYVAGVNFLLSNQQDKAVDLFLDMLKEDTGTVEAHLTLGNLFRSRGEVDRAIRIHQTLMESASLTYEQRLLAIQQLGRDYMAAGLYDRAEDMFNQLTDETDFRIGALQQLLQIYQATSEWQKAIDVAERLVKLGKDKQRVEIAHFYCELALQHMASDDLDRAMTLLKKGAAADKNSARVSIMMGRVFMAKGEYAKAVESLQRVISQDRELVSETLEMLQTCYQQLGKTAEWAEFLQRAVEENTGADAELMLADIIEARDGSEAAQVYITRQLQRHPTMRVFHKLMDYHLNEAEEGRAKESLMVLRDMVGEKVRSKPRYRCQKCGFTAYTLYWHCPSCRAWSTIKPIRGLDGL

T1: His6-tagged LapD protein (E. coli K-12) (UniProt P0ADW3)
T1 sequence: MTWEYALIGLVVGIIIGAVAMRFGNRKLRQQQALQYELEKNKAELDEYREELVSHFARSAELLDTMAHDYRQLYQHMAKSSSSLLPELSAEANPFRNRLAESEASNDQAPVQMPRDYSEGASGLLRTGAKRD

B1: LapD (protein, UniProt P0ADW3 1-132)
chain: MTWEYALIGLVVGIIIGAVAMRFGNRKLRQQQALQYELEKNKAELDEYREELVSHFARSAELLDTMAHDYRQLYQHMAKSSSSLLPELSAEANPFRNRLAESEASNDQAPVQMPRDYSEGASGLLRTGAKRD
B2: LapA (protein, UniProt P0ACV4 1-102)
chain: MKYLLIFLLVLAIFVISVTLGAQNDQQVTFNYLLAQGEYRISTLLAVLFAAGFAIGWLICGLFWLRVRVSLARAERKIKRLENQLSPATDVAVVPHSSAAKE
B3: WaaC (enzyme, UniProt P24173 1-319)
chain: MRVLIVKTSSMGDVLHTLPALTDAQQAIPGIKFDWVVEEGFAQIPSWHAAVERVIPVAIRRWRKAWFSAPIKAERKAFREALQAENYDAVIDAQGLVKSAALVTRLAHGVKHGMDWQTAREPLASLFYNRKHHIAKQQHAVERTRELFAKSLGYSKPQTQGDYAIAQHFLTNLPTDAGEYAVFLHATTRDDKHWPEEHWRELIGLLADSGIRIKLPWGAPHEEERAKRLAEGFAYVEVLPKMSLEGVARVLAGAKFVVSVDTGLSHLTAALDRPNITVYGPTDPGLIGGYGKNQMVCRAPRENLINLNSQAVLEKLSSL
B4: FklB (enzyme, UniProt P0A9L3 1-206)
chain: MTTPTFDTIEAQASYGIGLQVGQQLSESGLEGLLPEALVAGIADALEGKHPAVPVDVVHRALREIHERADAVRRQRFQAMAAEGVKYLEENAKKEGVNSTESGLQFRVINQGEGAIPARTDRVRVHYTGKLIDGTVFDSSVARGEPAEFPVNGVIPGWIEALTLMPVGSKWELTIPQELAYGERGAGASIPPFSTLVFEVELLEIL
B5: ZapD (protein, UniProt P36680 1-247)
chain: MQTQVLFEHPLNEKMRTWLRIEFLIQQLTVNLPIVDHAGALHFFRNVSELLDVFERGEVRTELLKELDRQQRKLQTWIGVPGVDQSRIEALIQQLKAAGSVLISAPRIGQFLREDRLIALVRQRLSIPGGCCSFDLPTLHIWLHLPQAQRDSQVETWIASLNPLTQALTMVLDLIRQSAPFRKQTSLNGFYQDNGGDADLLRLNLSLDSQLYPQISGHKSRFAIRFMPLDTENGQVPERLDFELACC
B6: HldE (enzyme, UniProt P76658 1-477)
chain: MKVTLPEFERAGVMVVGDVMLDRYWYGPTSRISPEAPVPVVKVNTIEERPGGAANVAMNIASLGANARLVGLTGIDDAARALSKSLADVNVKCDFVSVPTHPTITKLRVLSRNQQLIRLDFEEGFEGVDPQPLHERINQALSSIGALVLSDYAKGALASVQQMIQLARKAGVPVLIDPKGTDFERYRGATLLTPNLSEFEAVVGKCKTEEEIVERGMKLIADYELSALLVTRSEQGMSLLQPGKAPLHMPTQAQEVYDVTGAGDTVIGVLAATLAAGNSLEEACFFANAAAGVVVGKLGTSTVSPIELENAVRGRADTGFGVMTEEELKLAVAAARKRGEKVVMTNGVFDILHAGHVSYLANARKLGDRLIVAVNSDASTKRLKGDSRPVNPLEQRMIVLGALEAVDWVVSFEEDTPQRLIAGILPDLLVKGGDYKPEEIAGSKEVWANGGEVLVLNFEDGCSTTNIIKKIQQDKKG

Molecular target: His6-tagged LapB protein (E. coli) (UniProt P0AB58)
Assay: affinity purification with mass spectrometry; His6-LapB from IM fraction solubilized with 2% octyl-β-D-glucoside, on nickel-nitrilotriacetic acid beads, eluted with 250 mM imidazole; co-eluting proteins resolved on 12% SDS-PAGE (Coomassie) and identified by MALDI-TOF

binding, binds:
B1, B2, B3

Molecular target: T1, His6-tagged LapD protein (E. coli K-12)
Assay: affinity purification with mass spectrometry; His6-LapD (pCA24N JW5539 in BW25113) from IM fraction solubilized with 2% octyl-β-D-glucoside, on nickel-nitrilotriacetic acid beads, eluted with 250 mM and 100 mM imidazole; co-eluting proteins resolved on 12% SDS-PAGE (Coomassie) and identified by MALDI-TOF

binding, binds:
B4, B2, B5, B6
